# Measurements: the supplement of paper PMC8728848
# Some of the results follow.
# B1: PX9961K-bvu-480-28-480 (Bacteroides vulgatus) (protein)
# chain: NKIPTTMAFRTVTDVDNAVNGLYDLMSGSGYYGAAMFAYGDMKGDDMQSSEESGVCNTCYMFNHRPNSLNAGSLWGRPFYILREAWNILNAIAEGKIESGDEKKLNALKGETMAVIALCQFDLTRCFGYPYTKDKGASLGAPLIDHLVGTYENPPRSTVAQAYDFIIETLEEAVTLMSEEKNNGRMNKYAARALLARIYLYHDDNRKAFDLADQLIKDADTSGSYALYPHEKYVAAWSVEAKFGSESFFEIANSVDDTPGRDSWGYLLNWYGYQKGFVTQKYAEQMLADPGDVRGHLLEENKYAGKTVWWLYKLRGTDLKTAPLECNNVVLRLSEVYLIAAEAGCKLGGDAAVQGLGYLNEIVKRGNPDNEVTMADYTLDRVLDERSKELVGEGHRFFDLLRNGKTIVRKGGYHLPSVDEEVDWDFYKCVLPIPEDQFIFSPEMEQNPGYPKN
# How the values were obtained:
# Test in all cases: glycan array binding signal (z-score within array); higher = stronger binding
# Conditions in all cases: glycan notation: IUPAC condensed, linker removed
# [1] = molecular target: Gal(a1-3)Gal(b1-3)GlcNAc
# Summary of the method: (§1)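 Glycan array binding is given as a within-array Z-score, which can be read as non-binding when negative. The arrays, 3228 of them, came from the Consortium for Functional Glycomics database and were retained only where the protein sequence was available. Z-scores were averaged across arrays of the same protein sequence at different concentrations or buffers and across linkers.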
# [2] = molecular target: Gal(a1-3)Gal(b1-3)GlcNAc(b1-2)Man
# Summary of the method: as §1
# [3] = molecular target: Gal(a1-3)Gal(b1-3)GlcNAc(b1-2)Man(a1-3)[Gal(a1-3)Gal(b1-3)GlcNAc(b1-2)Man(a1-6)]Man(b1-4)GlcNAc(b1-4)GlcNAc
# Summary of the method: as §1
# [4] = molecular target: Gal(a1-3)Gal(b1-3)GlcNAc(b1-3)GalNAc
# Summary of the method: as §1
# [5] = molecular target: Gal(a1-3)Gal(b1-3)GlcNAc(b1-6)GalNAc
# Summary of the method: as §1
# [6] = molecular target: Gal(a1-3)Gal(b1-3)[Fuc(a1-4)]GlcNAc(b1-2)Man(a1-3)[Gal(a1-3)Gal(b1-3)[Fuc(a1-4)]GlcNAc(b1-2)Man(a1-6)]Man(b1-4)GlcNAc(b1-4)GlcNAc
# Summary of the method: as §1
# [7] = molecular target: Gal(a1-3)Gal(b1-4)Glc
# Summary of the method: as §1
# [8] = molecular target: Gal(a1-3)Gal(b1-4)GlcNAc
# Summary of the method: as §1
# [9] = molecular target: Gal(a1-3)Gal(b1-4)GlcNAc(b1-2)Man
# Summary of the method: as §1
# [10] = molecular target: Gal(a1-3)Gal(b1-4)GlcNAc(b1-2)Man(a1-3)[Gal(a1-3)Gal(b1-4)GlcNAc(b1-2)Man(a1-6)]Man(b1-4)GlcNAc(b1-4)GlcNAc
# Summary of the method: as §1
# [11] = molecular target: Gal(a1-3)Gal(b1-4)GlcNAc(b1-3)GalNAc
# Summary of the method: as §1
# [12] = molecular target: Gal(a1-3)Gal(b1-4)GlcNAc(b1-6)GalNAc
# Summary of the method: as §1
# [13] = molecular target: Gal(a1-3)Gal(b1-4)[Fuc(a1-3)]GlcNAc
# Summary of the method: as §1
# [14] = molecular target: Gal(a1-3)Gal(b1-4)[Fuc(a1-3)]GlcNAc(b1-2)Man(a1-3)[Gal(a1-3)Gal(b1-4)[Fuc(a1-3)]GlcNAc(b1-2)Man(a1-6)]Man(b1-4)GlcNAc(b1-4)GlcNAc
# Summary of the method: as §1
# [15] = molecular target: Gal(a1-3)GalNAc
# Summary of the method: as §1
# [16] = molecular target: Gal(a1-3)[Gal(a1-4)]Gal(b1-4)GlcNAc
# Summary of the method: as §1
# [17] = molecular target: Gal(a1-4)Gal(b1-3)GlcNAc(b1-2)Man(a1-3)[Gal(a1-4)Gal(b1-3)GlcNAc(b1-2)Man(a1-6)]Man(b1-4)GlcNAc(b1-4)GlcNAc
# Summary of the method: as §1
# [18] = molecular target: Gal(a1-4)Gal(b1-4)Glc
# Summary of the method: as §1
# [19] = molecular target: Gal(a1-4)Gal(b1-4)GlcNAc
# Summary of the method: as §1
# [20] = molecular target: Gal(a1-4)Gal(b1-4)GlcNAc(b1-2)Man(a1-3)[Gal(a1-4)Gal(b1-4)GlcNAc(b1-2)Man(a1-6)]Man(b1-4)GlcNAc(b1-4)GlcNAc
# Summary of the method: as §1
# [21] = molecular target: Gal(a1-4)Gal(b1-4)GlcNAc(b1-3)Gal(b1-4)Glc
# Summary of the method: as §1
# [22] = molecular target: Gal(a1-4)GlcNAc
# Summary of the method: as §1
# [23] = molecular target: Gal(a1-6)Glc
# Summary of the method: as §1
# [24] = molecular target: Gal(b1-2)Gal
# Summary of the method: as §1
# [25] = molecular target: Gal(b1-3)Gal
# Summary of the method: as §1
# [26] = molecular target: Gal(b1-3)Gal(b1-4)GlcNAc
# Summary of the method: as §1
# [27] = molecular target: Gal(b1-3)GalNAc
# Summary of the method: as §1
# [28] = molecular target: Gal(b1-3)GalNAc(a1-3)[Fuc(a1-2)]Gal(b1-4)Glc
# Summary of the method: as §1
# [29] = molecular target: Gal(b1-3)GalNAc(a1-3)[Fuc(a1-2)]Gal(b1-4)GlcNAc
# Summary of the method: as §1
# [30] = molecular target: Gal(b1-3)GalNAc(b1-3)Gal
# Summary of the method: as §1
# [31] = molecular target: Gal(b1-3)GalNAc(b1-3)Gal(a1-4)Gal(b1-4)Glc
# Summary of the method: as §1
# [32] = molecular target: Gal(b1-3)GalNAc(b1-4)Gal(b1-4)Glc
# Summary of the method: as §1
# [33] = molecular target: Gal(b1-3)GalNAc(b1-4)[Neu5Ac(a2-3)]Gal(b1-4)Glc
# Summary of the method: as §1
# [34] = molecular target: Gal(b1-3)GlcNAc
# Summary of the method: as §1
# [35] = molecular target: Gal(b1-3)GlcNAc(a1-3)Gal(b1-4)GlcNAc
# Summary of the method: as §1
# [36] = molecular target: Gal(b1-3)GlcNAc(a1-6)Gal(b1-4)GlcNAc
# Summary of the method: as §1
# [37] = molecular target: Gal(b1-3)GlcNAc(b1-2)Man
# Summary of the method: as §1
# [38] = molecular target: Gal(b1-3)GlcNAc(b1-2)Man(a1-3)[Gal(b1-3)GlcNAc(b1-2)Man(a1-6)]Man(b1-4)GlcNAc(b1-4)GlcNAc
# Summary of the method: as §1
binder,measurement,setting,value
B1,glycan array binding signal (z-score),[1],-0.593
same,glycan array binding signal (z-score),[2],-0.507
same,glycan array binding signal (z-score),[3],0.762
same,glycan array binding signal (z-score),[4],-0.949
same,glycan array binding signal (z-score),[5],0.051
same,glycan array binding signal (z-score),[6],-0.117
same,glycan array binding signal (z-score),[7],-0.354
same,glycan array binding signal (z-score),[8],-0.719
same,glycan array binding signal (z-score),[9],-0.089
same,glycan array binding signal (z-score),[10],0.214
same,glycan array binding signal (z-score),[11],-0.276
same,glycan array binding signal (z-score),[12],-0.52
same,glycan array binding signal (z-score),[13],-0.376
same,glycan array binding signal (z-score),[14],0.602
same,glycan array binding signal (z-score),[15],-0.059
same,glycan array binding signal (z-score),[16],3.09
same,glycan array binding signal (z-score),[17],0.366
same,glycan array binding signal (z-score),[18],-0.955
same,glycan array binding signal (z-score),[19],0.468
same,glycan array binding signal (z-score),[20],1.47
same,glycan array binding signal (z-score),[21],-0.555
same,glycan array binding signal (z-score),[22],-0.775
same,glycan array binding signal (z-score),[23],-0.367
same,glycan array binding signal (z-score),[24],0.817
same,glycan array binding signal (z-score),[25],1.03
same,glycan array binding signal (z-score),[26],-0.784
same,glycan array binding signal (z-score),[27],-0.53
same,glycan array binding signal (z-score),[28],-0.261
same,glycan array binding signal (z-score),[29],0.449
same,glycan array binding signal (z-score),[30],-0.645
same,glycan array binding signal (z-score),[31],0.509
same,glycan array binding signal (z-score),[32],-0.326
same,glycan array binding signal (z-score),[33],-0.368
same,glycan array binding signal (z-score),[34],-0.413
same,glycan array binding signal (z-score),[35],0.581
same,glycan array binding signal (z-score),[36],-0.17
same,glycan array binding signal (z-score),[37],0.832
same,glycan array binding signal (z-score),[38],-0.001

# Reformatted: entries from further up.
binder	measurement	setting	value
B1	glycan array binding signal (z-score)	[6]	-0.117
same	glycan array binding signal (z-score)	[7]	-0.354
